The source of these data is publication PMC9217715.

Chains of the proteins cited; added tags and fusions are not shown.
UniProt Q15796: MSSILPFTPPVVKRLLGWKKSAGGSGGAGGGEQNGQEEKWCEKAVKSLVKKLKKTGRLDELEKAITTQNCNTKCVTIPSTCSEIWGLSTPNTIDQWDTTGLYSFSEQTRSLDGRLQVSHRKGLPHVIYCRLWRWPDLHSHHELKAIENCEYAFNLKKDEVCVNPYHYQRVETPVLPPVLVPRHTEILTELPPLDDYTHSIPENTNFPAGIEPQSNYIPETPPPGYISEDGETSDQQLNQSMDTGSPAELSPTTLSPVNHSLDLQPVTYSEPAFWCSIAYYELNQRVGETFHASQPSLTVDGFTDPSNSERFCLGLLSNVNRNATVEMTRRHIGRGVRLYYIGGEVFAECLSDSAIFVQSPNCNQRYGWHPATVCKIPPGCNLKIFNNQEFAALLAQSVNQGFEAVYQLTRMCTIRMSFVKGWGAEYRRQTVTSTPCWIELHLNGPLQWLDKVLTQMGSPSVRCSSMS

Results are given in words; binding and its absence hold for the method and conditions named. In cells and extracts the contact can be indirect. Some results given as binding are weak or reduced against the parent protein; the word gives no strength.

For the assay, the target named is T1, TGFBR1 (human (endogenous in HCT-116 and HT-29)) (UniProt P36897).
T1 sequence: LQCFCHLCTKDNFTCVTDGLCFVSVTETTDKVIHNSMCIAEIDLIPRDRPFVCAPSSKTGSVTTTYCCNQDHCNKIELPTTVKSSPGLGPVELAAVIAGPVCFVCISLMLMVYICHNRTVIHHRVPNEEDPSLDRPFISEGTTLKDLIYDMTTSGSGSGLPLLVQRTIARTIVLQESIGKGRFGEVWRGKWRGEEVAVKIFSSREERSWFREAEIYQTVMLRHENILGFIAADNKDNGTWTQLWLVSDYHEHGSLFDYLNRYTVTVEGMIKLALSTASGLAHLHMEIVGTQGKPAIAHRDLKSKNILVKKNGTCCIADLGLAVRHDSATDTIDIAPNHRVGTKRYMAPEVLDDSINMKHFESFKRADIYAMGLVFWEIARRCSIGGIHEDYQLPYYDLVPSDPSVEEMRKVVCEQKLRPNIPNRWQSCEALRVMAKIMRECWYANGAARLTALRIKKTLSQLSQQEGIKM
Briefly: co-IP; lysates (pre-cooled RIPA buffer with phosphatase inhibitors) of HCT-116 and HT-29 cells with or without ALG10 knockdown; Protein A agarose beads; precipitating antibody not stated.

p-smad2 (from UniProt Q15796 1-467): the binding entry is “binds”.
